Source: PubChem BioAssay AID2551 (National Center for Advancing Translational Sciences (NCATS), 2010)
In all, about 310,000 compounds went through this assay and about 17,000 (5.5%) were called active. The shares of active, inactive and inconclusive entries below differ from those in the screen. Calls come from the whole dose curve; as a rule, active = well fitted inhibition curve with a large enough effect; inconclusive = small, poorly fitted or top-dose-only effect, or effect the other way; inactive = no such curve, though single readings can be large or run the other way. Potencies of inconclusive entries are doubtful fits and often do not repeat. Some compounds were tested as several samples or in several runs, with calls that do not always agree.

Amino acid sequences for entries named in this document (tags omitted). A change or cut given only in a name is not applied to a line headed by its entry.
UniProt P51450: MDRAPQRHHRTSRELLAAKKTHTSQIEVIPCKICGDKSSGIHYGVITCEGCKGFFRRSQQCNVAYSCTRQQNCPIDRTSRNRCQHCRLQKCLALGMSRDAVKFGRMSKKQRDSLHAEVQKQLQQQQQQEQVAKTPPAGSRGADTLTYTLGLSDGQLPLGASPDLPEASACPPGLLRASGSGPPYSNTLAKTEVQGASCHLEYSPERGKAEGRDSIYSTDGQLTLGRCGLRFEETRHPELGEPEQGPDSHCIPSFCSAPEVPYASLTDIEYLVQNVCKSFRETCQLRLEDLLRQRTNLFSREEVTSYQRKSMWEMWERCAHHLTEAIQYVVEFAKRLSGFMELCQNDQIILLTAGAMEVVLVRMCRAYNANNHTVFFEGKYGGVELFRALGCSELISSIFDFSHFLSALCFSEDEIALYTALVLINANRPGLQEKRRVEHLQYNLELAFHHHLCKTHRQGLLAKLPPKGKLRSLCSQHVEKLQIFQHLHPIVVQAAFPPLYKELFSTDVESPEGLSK

Molecular target: Nuclear receptor ROR-gamma (Mus musculus) (UniProt P51450)
Assay: qHTS for inhibitors of ROR gamma transcriptional activity; note: nearly all actives have a fitted effect of over 60% in size
Conditions: Drosophila S2 Gal4-RORgamma UAS-luciferase reporter, 20 h; series mostly up to 53.6 µM
Procedure, shortened: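 ROR gamma transcriptional activity was tracked as Gal4-UAS luciferase output in stably transfected Drosophila Schneider cells, with compound added 1 hr before 700 uM copper sulfate induction and a 20 hr ambient-temperature incubation.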
Potency is the fitted concentration of half-maximal effect.

**Q.** How did the Potency turn out when `CCCCNc1c(C(=O)OCC)c(C)nc2c1cnn2CC` was run?
**A.** active: 31.6 µM

**Q.** `O=C(CCNC(=O)N1CC(=O)Nc2ccccc21)Nc1ccc(Cl)cc1` was tested. Which Potency did it give?
**A.** inactive

**Q.** `CC(OC(=O)c1cccc(S(=O)(=O)Nc2ccccc2F)c1)C(=O)NCc1ccc2c(c1)OCO2` (centres undefined) was tested. Which Potency did it give?
**A.** inconclusive: 31.6 µM [activator, single point]

**Q.** `COC(=O)CCN(C(=O)c1ccc(C)c([N+](=O)[O-])c1)c1ccccn1` was tested. Which Potency did it give?
**A.** inconclusive: 4.47 µM [activator, partial curve, poor fit]

**Q.** With `CC1CCN(c2ccc(S(=O)(=O)N3CCC(C)CC3)cc2N)CC1` as the compound, how does the Potency read?
**A.** inconclusive: 3.98 µM [activator, single point]

**Q.** For `CCCCC[C@H](O)/C=C/C=C/C=C/[C@@H](O)C/C=C\CCCC(=O)O`, which Potency is on record?
**A.** inactive

**Q.** Which Potency does the source give for `COC(=O)c1ccc2c(=O)n(CCN3CCOCC3)c(SCC(=O)Nc3ccc(C)cc3)nc2c1` here?
**A.** inconclusive: 14.1 µM [activator, single point]

**Q.** With `C=CCn1c(COc2cccc(C)c2)nnc1SCC(=O)NC(=O)NCc1ccco1` as the compound, how does the Potency read?
**A.** inconclusive: 25.1 µM [inhibitor, single point]

**Q.** For `CN(C)c1nc(N)nc(-c2nc3ccccc3s2)n1`, which Potency is on record?
**A.** inconclusive: 28.2 µM [inhibitor, single point]

**Q.** `Cc1nc2ccccc2nc1CSc1nncs1` was tested. Which Potency did it give?
**A.** inactive

**Q.** `CN(c1ccccc1)c1ccc(/C=C/[N+](=O)[O-])cc1` was tested. Which Potency did it give?
**A.** inconclusive: 35.5 µM [inhibitor, single point]

**Q.** How did the Potency turn out when `C/C(=N\NC(=O)c1c(Br)c(C)nn1C)c1ccc(NC(=O)C(C)Oc2ccc(Cl)cc2C)cc1` (centres undefined) was run?
**A.** inconclusive: 22.4 µM [inhibitor, single point]

**Q.** Which Potency does the source give for `COCCN1CCn2c(nc3cc(Nc4nnc(C)c5ccccc45)ccc32)C1` here?
**A.** inactive

**Q.** For `CC12CC(c3ccccc3O1)N(C(=O)c1ccco1)C(=S)N2c1ccc(F)cc1` (centres undefined), which Potency is on record?
**A.** active: 10 µM

**Q.** How did the Potency turn out when `COC(=O)c1cn(NC(=O)c2cc([N+](=O)[O-])ccc2F)c(=O)c2ccccc12` was run?
**A.** inactive

**Q.** With `O=C(CNC(=O)Cc1ccccc1)N=Nc1c(O)[nH]c2ccc(Br)cc12` as the compound, how does the Potency read?
**A.** inactive

**Q.** How did the Potency turn out when `COc1ccccc1OCc1cc(C(=O)N2CCN(C)C(c3ccccc3)C2)no1` (centres undefined) was run?
**A.** inactive

**Q.** With `CC(C)C(NC(=O)c1ccc(Cl)cc1)C(=O)NC1=NCCS1` (centres undefined) as the compound, how does the Potency read?
**A.** inconclusive: 35.5 µM [inhibitor, single point]

**Q.** How did the Potency turn out when `CCCc1cc(Nc2ccc(C)cc2)n2ncnc2n1` was run?
**A.** inconclusive: 12.6 µM [inhibitor, single point]

**Q.** For `COCCNC(=S)Nc1ccc([N+](=O)[O-])cc1C`, which Potency is on record?
**A.** inconclusive: 35.5 µM [inhibitor, single point]

**Q.** Which Potency does the source give for `CCN(CC)CCNC(=O)c1cc(S(=O)(=O)N2CCc3ccccc32)cn1C` here?
**A.** inconclusive: 5.62 µM [activator, single point]

**Q.** For `COc1ccc(C2CC(O)(c3ccccc3)Oc3cc(C)c(Cl)c(C)c32)cc1` (centres undefined), which Potency is on record?
**A.** inactive

**Q.** With `CCc1cccc(CC)c1NC(=S)NCCc1c(C)[nH]c2ccc(C)cc12` as the compound, how does the Potency read?
**A.** active: 3.16 µM

**Q.** `C/C(Cl)=C/Cn1c(N2CCCC2)nc2c1c(=O)n(C)c(=O)n2C` was tested. Which Potency did it give?
**A.** inactive

**Q.** Which Potency does the source give for `CC1CCCN(CCCNC(=O)c2cc3c(Cl)nc4ccccc4c3s2)C1` (centres undefined) here?
**A.** inconclusive: 22.4 µM [inhibitor, single point]

**Q.** Which Potency does the source give for `CCOC(=O)c1ccc(NC(=S)NCCc2ccc(F)cc2)cc1` here?
**A.** active: 10 µM

**Q.** Which Potency does the source give for `Cc1nc(CSc2n[nH]c(=O)n2-c2cccc(F)c2)cs1` here?
**A.** inactive

**Q.** How did the Potency turn out when `C/C(=N\NC(=O)c1cccc(S(=O)(=O)Nc2ccccc2Cl)c1)c1ccc(-n2ccnc2)cc1` was run?
**A.** inconclusive: 11.2 µM [inhibitor, single point]

**Q.** How did the Potency turn out when `CSc1nc2cc(Oc3cccc(Cl)c3Cl)c(Cl)cc2[nH]1` was run?
**A.** inconclusive: 22.4 µM [inhibitor, single point]

**Q.** How did the Potency turn out when `Cc1cccc(N(CC(=O)NC(C)C)C(=O)c2ccc(N3CCCC3)nc2)c1` was run?
**A.** inactive

**Q.** For `O=C(Nc1ccc2nc(-c3ccco3)[nH]c2c1)c1cccs1`, which Potency is on record?
**A.** inconclusive: 0.447 µM [activator, full curve]

**Q.** With `COC(C(=O)N/N=C(\C)CC(=O)Nc1ccc(N(C)C)cc1)c1ccccc1` (centres undefined) as the compound, how does the Potency read?
**A.** active: 12.6 µM

**Q.** Which Potency does the source give for `COc1ccccc1C(C#N)c1cccc(Cl)n1` (centres undefined) here?
**A.** inactive

**Q.** For `c1ccc(-c2nn3c(Cn4cnc5ccccc54)nnc3s2)cc1`, which Potency is on record?
**A.** active: 0.0708 µM

**Q.** With `CC(CC(=O)N1CCN(c2ccccc2)CC1)S(=O)(=O)c1ccc2c(c1)NC(=O)CO2` (centres undefined) as the compound, how does the Potency read?
**A.** inconclusive: 15.8 µM [activator, single point]

**Q.** `O=S(=O)(Nc1ccc(Br)cc1)c1cccc(NC(=S)NCCN2CCOCC2)c1` was tested. Which Potency did it give?
**A.** inconclusive: 11.2 µM [activator, partial curve]

**Q.** `O=C(Nc1cc([N+](=O)[O-])ccc1O)c1cccc(NC(=O)c2ccco2)c1` was tested. Which Potency did it give?
**A.** inactive

**Q.** `CC(=O)c1ccc(N=C2SCCCN2C(=O)C2CCCCC2)cc1` was tested. Which Potency did it give?
**A.** inconclusive: 11.2 µM [activator, partial curve]

**Q.** Which Potency does the source give for `FC(F)(F)c1cccc(N2CCN(C(=S)NC3CCCCC3)CC2)c1` here?
**A.** active: 15.8 µM

**Q.** Which Potency does the source give for `S=C(Nc1ccccc1)Nc1ccccc1Br` here?
**A.** inconclusive: 15.8 µM [inhibitor, single point]

**Q.** With `Cc1ccccc1NC(=O)NNC(=O)COc1ccc2ccccc2c1` as the compound, how does the Potency read?
**A.** inactive

**Q.** With `Fc1ccccc1N1CCN(C2CCCN(Cc3ccccc3C(F)(F)F)C2)CC1` (centres undefined) as the compound, how does the Potency read?
**A.** inconclusive: 12.6 µM [activator, single point]

**Q.** For `Cc1ccc2c(C)c(C(=O)N3CCN(Cc4ccc5c(c4)OCO5)CC3)oc2c1C`, which Potency is on record?
**A.** inconclusive: 4.47 µM [activator, partial curve]

**Q.** `O=C1OCC2=C1C(c1ccc(F)cc1)Sc1ccccc1N2` (centres undefined) was tested. Which Potency did it give?
**A.** inconclusive: 25.1 µM [inhibitor, single point]

**Q.** `Oc1c(C(c2cccs2)N2CCN(c3ccccc3)CC2)ccc2cccnc12` (centres undefined) was tested. Which Potency did it give?
**A.** active: 5.01 µM

**Q.** How did the Potency turn out when `CCN(CC)C(=S)NC(=O)c1ccc(OC)c(Br)c1` was run?
**A.** active: 0.355 µM

**Q.** Which Potency does the source give for `COc1ccc(Nc2nc(-c3ccccc3)c3ccccc3n2)cc1` here?
**A.** inactive

**Q.** With `O=C1/C(=C\c2cc(Br)cc(Br)c2O)SC(=S)N1Cc1ccccc1` as the compound, how does the Potency read?
**A.** active: 12.6 µM

**Q.** Which Potency does the source give for `Cc1cccc(C)c1NC(=S)N(CCN(C)C)Cc1cccs1` here?
**A.** active: 10 µM
